Measured values: publication PMC3060616
No constants are given. Whether binding was seen depends on the method and setting. In cells and extracts the contact can be indirect. For some assays here: Binding can be weak; no strength is given.

By UniProt entry, the sequences of proteins in these tests, tags left out. Where a name states a change or a piece, a line headed by the entry shows the natural chain unless it says otherwise.
UniProt P02919: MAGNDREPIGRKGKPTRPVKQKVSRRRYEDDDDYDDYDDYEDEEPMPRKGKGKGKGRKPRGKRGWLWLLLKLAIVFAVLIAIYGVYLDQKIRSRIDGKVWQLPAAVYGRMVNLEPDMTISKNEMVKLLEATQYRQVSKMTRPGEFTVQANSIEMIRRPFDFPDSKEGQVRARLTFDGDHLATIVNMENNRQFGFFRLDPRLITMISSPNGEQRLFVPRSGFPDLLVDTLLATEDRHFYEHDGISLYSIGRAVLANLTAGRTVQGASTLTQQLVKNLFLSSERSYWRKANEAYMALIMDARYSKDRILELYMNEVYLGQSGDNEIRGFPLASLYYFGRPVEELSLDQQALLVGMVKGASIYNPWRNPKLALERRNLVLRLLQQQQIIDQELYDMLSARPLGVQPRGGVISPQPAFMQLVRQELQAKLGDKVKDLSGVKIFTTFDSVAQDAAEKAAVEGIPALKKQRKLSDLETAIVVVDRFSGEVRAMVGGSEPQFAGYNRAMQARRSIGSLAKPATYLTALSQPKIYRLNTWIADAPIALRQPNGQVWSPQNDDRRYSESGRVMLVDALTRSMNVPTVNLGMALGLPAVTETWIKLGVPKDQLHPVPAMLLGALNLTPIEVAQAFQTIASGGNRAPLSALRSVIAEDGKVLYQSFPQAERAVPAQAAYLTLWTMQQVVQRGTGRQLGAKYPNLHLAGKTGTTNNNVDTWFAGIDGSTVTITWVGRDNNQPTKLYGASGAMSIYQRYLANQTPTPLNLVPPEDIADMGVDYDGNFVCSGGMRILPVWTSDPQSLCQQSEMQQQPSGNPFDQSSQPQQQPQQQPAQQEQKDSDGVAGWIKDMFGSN

Experiments:
[1] = target: C-terminal domain of LpoA (LpoA^C) (E. coli); assay: pull-down; affinity chromatography: E. coli membrane fraction applied in 400 mM NaCl to sepharose columns with immobilised protein, empty sepharose as control; washed, eluted with 2 M NaCl; SDS-PAGE, Western blot and immunodetection of Lpo proteins or PBPs; only the target purified
[2] = target: PBP1B variant that lacks the UB2H domain (PBP1BΔUB2H) (E. coli) (UniProt P02919); assay: cross-linking + co-IP; E. coli cells treated with DTSSP cross-linker in vivo; membrane fractions immunoprecipitated with LpoA or PBP1B antibodies and protein G-agarose; cross-link reverted with reducing agent; immunodetection of PBP1A or LpoB

Row | binding [1] | binding [2] | Binder
1 | binds |  | PBP1A, endogenous (enzyme, UniProt P02918 1-850) MKFVKYFLILAVCCILLGAGSIYGLYRYIEPQLPDVATLKDVRLQIPMQIYSADGELIAQYGEKRRIPVTLDQIPPEMVKAFIATEDSRFYEHHGVDPVGIFRAASVALFSGHASQGASTITQQLARNFFLSPERTLMRKIKEVFLAIRIEQLLTKDEILELYLNKIYLGYRAYGVGAAAQVYFGKTVDQLTLNEMAVIAGLPKAPSTFNPLYSMDRAVARRNVVLSRMLDEGYITQQQFDQTRTEAINANYHAPEIAFSAPYLSEMVRQEMYNRYGESAYEDGYRIYTTITRKVQQAAQQAVRNNVLDYDMRHGYRGPANVLWKVGESAWDNNKITDTLKALPTYGPLLPAAVTSANPQQATAMLADGSTVALSMEGVRWARPYRSDTQQGPTPRKVTDVLQTGQQIWVRQVGDAWWLAQVPEVNSALVSINPQNGAVMALVGGFDFNQSKFNRATQALRQVGSNIKPFLYTAAMDKGLTLASMLNDVPISRWDASAGSDWQPKNSPPQYAGPIRLRQGLGQSKNVVMVRAMRAMGVDYAAEYLQRFGFPAQNIVHTESLALGSASFTPMQVARGYAVMANGGFLVDPWFISKIENDQGGVIFEAKPKVACPECDIPVIYGDTQKSNVLENNDVEDVAISREQQNVSVPMPQLEQANQALVAKTGAQEYAPHVINTPLAFLIKSALNTNIFGEPGWQGTGWRAGRDLQRRDIGGKTGTTNSSKDAWFSGYGPGVVTSVWIGFDDHRRNLGHTTASGAIKDQISGYEGGAKSAQPAWDAYMKAVLEGVPEQPLTPPPGIVTVNIDRSTGQLANGGNSREEYFIEGTQPTQQAVHEVGTTIIDNGEAQELF
2 |  | no binding | LpoB (YcfM), endogenous (protein, UniProt P0AB38 20-213) CVGQREPAPVEEVKPAPEQPAEPQQPVPTVPSVPTIPQQPGPIEHEDQTAPPAPHIRHYDWNGAMQPMVSKMLGADGVTAGSVLLVDSVNNRTNGSLNAAEATETLRNALANNGKFTLVSAQQLSMAKQQLGLSPQDSLGTRSKAIGIARNVGAHYVLYSSASGNVNAPTLQMQLMLVQTGEIIWSGKGAVSQQ
